# Literature values, collected in EP3875080B1, “DOSAGE FORM PROVIDING PROLONGED RELEASE OF TAPENTADOL PHOSPHORIC ACID SALT” (priority 2020, dated 2021).
# Details: in vivo; cited from earlier work
structure (smiles),measurement,value
CN1CC[C@]23c4c5ccc(O)c4O[C@H]2[C@@H](O)C=C[C@H]3[C@H]1C5 [Morphine],Maximum individual Cmax ratio with 40% alcohol,4.54
same,mean increase in Cmax ratio relative to drug co-ingested with 0% alcohol,1.0
